The assay concerns the target Flag-XPO5 (FLAG-tagged human XPO5) (human) (UniProt Q9HAV4). As to the kind of experiment: co-IP; anti-FLAG M2 affinity purification from transfected HEK293T (293FT) cells lysed in hypotonic gentle lysis buffer (10 mM Tris-HCl pH 7.6, 10 mM NaCl, 2 mM EDTA, 0.5% Triton X-100); Western blot and silver stain. A general note: A western blot detects proteins with antibodies after separation by electrophoresis.

The chains behind the UniProt entries cited, without tags or fusion partners. Where a name states a change or a piece, a line headed by the entry shows the natural chain unless it says otherwise.
UniProt Q9HAV4: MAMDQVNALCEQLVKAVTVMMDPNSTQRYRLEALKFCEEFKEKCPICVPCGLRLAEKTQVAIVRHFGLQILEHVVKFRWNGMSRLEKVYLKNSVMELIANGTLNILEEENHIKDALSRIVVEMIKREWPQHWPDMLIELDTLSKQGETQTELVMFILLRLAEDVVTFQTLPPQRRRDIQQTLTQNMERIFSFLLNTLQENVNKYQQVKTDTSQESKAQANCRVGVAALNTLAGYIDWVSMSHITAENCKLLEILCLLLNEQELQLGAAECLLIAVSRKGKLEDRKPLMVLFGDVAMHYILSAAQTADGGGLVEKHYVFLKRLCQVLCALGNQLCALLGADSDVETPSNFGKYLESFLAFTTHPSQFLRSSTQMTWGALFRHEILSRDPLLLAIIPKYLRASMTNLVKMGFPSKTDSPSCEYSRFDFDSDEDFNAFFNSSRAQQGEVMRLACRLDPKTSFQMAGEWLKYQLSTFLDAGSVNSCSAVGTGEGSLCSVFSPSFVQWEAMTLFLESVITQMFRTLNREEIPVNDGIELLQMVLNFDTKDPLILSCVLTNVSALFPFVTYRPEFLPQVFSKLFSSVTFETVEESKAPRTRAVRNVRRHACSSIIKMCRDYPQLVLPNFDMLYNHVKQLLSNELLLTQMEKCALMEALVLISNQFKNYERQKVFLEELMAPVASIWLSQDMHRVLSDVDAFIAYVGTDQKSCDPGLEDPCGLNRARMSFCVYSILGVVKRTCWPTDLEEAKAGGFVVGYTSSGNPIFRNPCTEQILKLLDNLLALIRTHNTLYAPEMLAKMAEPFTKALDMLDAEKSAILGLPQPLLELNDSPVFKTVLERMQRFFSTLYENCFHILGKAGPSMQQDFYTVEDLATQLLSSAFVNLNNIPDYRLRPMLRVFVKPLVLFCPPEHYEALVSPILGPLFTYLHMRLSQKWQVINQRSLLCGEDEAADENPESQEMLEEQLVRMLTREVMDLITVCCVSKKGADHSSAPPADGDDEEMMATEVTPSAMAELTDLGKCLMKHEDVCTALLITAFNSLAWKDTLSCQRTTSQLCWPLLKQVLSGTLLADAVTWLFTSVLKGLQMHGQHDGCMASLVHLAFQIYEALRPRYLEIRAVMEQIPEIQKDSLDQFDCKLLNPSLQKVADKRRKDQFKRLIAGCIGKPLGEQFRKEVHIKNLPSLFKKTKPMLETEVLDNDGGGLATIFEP
UniProt Q9NRR4: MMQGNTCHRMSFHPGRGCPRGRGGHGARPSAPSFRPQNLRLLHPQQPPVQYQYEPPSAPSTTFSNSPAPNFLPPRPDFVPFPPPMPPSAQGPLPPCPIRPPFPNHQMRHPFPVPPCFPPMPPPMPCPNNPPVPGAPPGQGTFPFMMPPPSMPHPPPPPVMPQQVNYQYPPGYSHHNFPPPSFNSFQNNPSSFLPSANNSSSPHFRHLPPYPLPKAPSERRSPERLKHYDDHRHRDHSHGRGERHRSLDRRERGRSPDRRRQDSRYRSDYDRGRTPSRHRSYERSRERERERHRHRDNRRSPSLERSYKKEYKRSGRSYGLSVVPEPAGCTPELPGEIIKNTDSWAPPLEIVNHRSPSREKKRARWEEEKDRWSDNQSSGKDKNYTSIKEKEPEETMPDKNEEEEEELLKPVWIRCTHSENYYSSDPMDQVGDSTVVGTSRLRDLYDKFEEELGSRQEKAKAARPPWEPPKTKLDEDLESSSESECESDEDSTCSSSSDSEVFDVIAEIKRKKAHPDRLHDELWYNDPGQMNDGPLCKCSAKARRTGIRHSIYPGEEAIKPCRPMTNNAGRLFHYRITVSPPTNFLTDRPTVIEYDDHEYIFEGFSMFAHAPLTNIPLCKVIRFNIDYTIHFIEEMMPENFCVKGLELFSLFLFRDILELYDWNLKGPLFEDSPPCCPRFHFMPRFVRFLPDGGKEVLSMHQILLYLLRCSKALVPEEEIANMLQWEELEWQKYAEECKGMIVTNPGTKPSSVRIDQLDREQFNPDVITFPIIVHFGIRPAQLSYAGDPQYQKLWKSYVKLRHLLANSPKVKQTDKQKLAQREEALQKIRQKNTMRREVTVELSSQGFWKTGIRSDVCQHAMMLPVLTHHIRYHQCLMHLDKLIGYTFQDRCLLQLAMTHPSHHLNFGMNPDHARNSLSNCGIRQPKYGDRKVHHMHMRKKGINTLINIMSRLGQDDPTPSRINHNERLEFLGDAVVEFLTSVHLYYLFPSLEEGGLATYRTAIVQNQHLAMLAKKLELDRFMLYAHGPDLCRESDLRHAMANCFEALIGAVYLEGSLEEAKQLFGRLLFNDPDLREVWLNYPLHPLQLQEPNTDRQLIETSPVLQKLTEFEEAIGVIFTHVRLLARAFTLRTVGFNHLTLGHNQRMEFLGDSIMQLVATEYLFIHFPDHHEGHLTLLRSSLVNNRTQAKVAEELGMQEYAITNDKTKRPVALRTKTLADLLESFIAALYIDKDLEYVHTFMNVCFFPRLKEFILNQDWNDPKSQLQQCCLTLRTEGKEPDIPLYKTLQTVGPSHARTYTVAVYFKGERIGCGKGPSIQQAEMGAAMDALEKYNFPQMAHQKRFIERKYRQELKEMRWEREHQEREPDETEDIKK

These are yes or no findings as the source states them, for the method shown. Binding seen in cells or lysates may run through a third protein.

For the substance “DROSHA/DGCR8 microprocessor (from UniProt Q9NRR4 1-1374; Q8WYQ5 1-773) (complex)”, the binding result is “no binding”.

Values taken from paper PMC7160132.
